# In PubChem BioAssay AID624297 (National Center for Advancing Translational Sciences (NCATS), 2012):
# About 6,200 (1.8%) of roughly 340,000 compounds were called active. This list was built around the results that the source calls inconclusive (neither active nor inactive); the mix of calls is not that of the screen. The call rests on the fitted dose curve; in most records, active means well fitted activation curve with a large enough effect; inconclusive means small, poorly fitted or top-dose-only effect; inactive means no such curve, though single readings can be large or run the other way. Where the call is inconclusive, the potency comes from a doubtful curve fit.
# Assay: A quantitative high throughput screen for small molecules that induce DNA re-replication in SW480 colon adenocarcinoma cells. Further: nearly all actives have a fitted effect of over 55% in size. On re-replication activation: % of control where 0% means no effect.
# Conditions: Hoechst DNA content imaging, 48 h; re-replication activation: at 46.1 µM (top of the series) unless noted
# How it was run: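 DNA re-replication was detected as more nuclei of elevated Hoechst intensity after 48 hr exposure to compound (23 nL pinned per well of 250 cells).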
# Potency means the concentration at half of the fitted maximal effect.
SMILES,Potency,re-replication activation
COc1ccccc1NS(=O)(=O)c1ccc(C)c(C(=O)NCC(c2ccco2)N(C)C)c1 (configuration not stated),"inconclusive: 18.4 µM [activator, single point]",
COc1ccc(CCN(C)Cc2ccc(OC)c(OCc3ccccc3)c2)cc1OC,"inconclusive: 20.6 µM [activator, single point]",
CCC(C(=O)NCCC1=CCCCC1)n1nc(C)c2c(C)n(-c3ccccc3)nc2c1=O (configuration not stated),,inactive: 1.19%
O=C(NNC(=O)C1[C@H]2CCCC[C@@H]12)Nc1cccc2ccccc12 (some centres not stated),,inactive: -1.8%
CCN(CC)C(=O)c1sc(NC(=O)c2ccc3c(c2)OCO3)c(C(N)=O)c1C,"inconclusive: 18.4 µM [activator, single point]",
COc1cccc2c1cc1c(=O)n(CC(=O)NCCCN3CCCCC3)nc(C)n12,,inactive: 2.1%
CC(=O)Oc1ccc(C(c2ccc(OC(C)=O)cc2)c2ccccn2)cc1,inactive,
COCCN(C(=O)Cn1nnc2ccccc21)C(C(=O)NC1CCCCC1)c1ccc(OC)cc1OC (configuration not stated),"inconclusive: 15.8 µM [activator, partial curve, poor fit]",
CNC(=S)N/N=C/c1ccc(-c2ccc(C(=O)O)cc2)o1,"inconclusive: 23.1 µM [activator, single point]",
COC(=O)c1ccc2nc(NC(=O)CCS(=O)(=O)c3ccccc3)sc2c1,"inconclusive: 6.51 µM [activator, single point]",
Oc1cnc2ccccc2c1CN1CCOCC1,,inactive: 1.61%
CC[C@H](C)[C@H](NS(=O)(=O)c1ccc(C)cc1)C(=O)N1CCC(C(=O)N[C@H](C(=O)O)C(C)C)CC1,"inconclusive: 5.17 µM [activator, single point]",
CCN1CCC(NC(=O)Nc2ccc(F)cc2F)CC1,"inconclusive: 20.6 µM [activator, partial curve, poor fit]",
Cc1nn(-c2ccccc2)c2c1CC(=O)Nc1ccccc1-2,active: 1.46 µM,
CN(C)c1ccc(NC(=O)c2cccc(C(=O)Nc3ccc(N(C)C)cc3)n2)cc1,"inconclusive: 20.6 µM [activator, single point]",
CCn1c(SCC(=O)c2ccc(C)cc2)nnc1-c1ccoc1C,,inactive: -6.33%
Oc1ccc(O)c(Cc2nc3ccccc3s2)c1,"inconclusive: 29.1 µM [activator, single point]",
O=C(CNC(=O)c1ccc(Cl)cc1)NC1CCCCC1,active: 8.2 µM,
Cc1ccccc1N1CC(C(=O)Nc2nnc(SCc3cccnc3)s2)CC1=O (configuration not stated),"inconclusive: 29.1 µM [activator, partial curve, poor fit]",
CC(=O)c1cccc(NC(=O)c2ccc([N+](=O)[O-])o2)c1,"inconclusive: 2.91 µM [activator, full curve, poor fit]",
C=C1C(=O)O[C@@H]2[C@H]1CC[C@H](C)[C@]1(O)CCC(=O)[C@@]21C,"inconclusive: 29.1 µM [activator, single point]",
COc1ccccc1[C@H]1C(c2ccccc2)=NN(c2ccccc2)[C@@H]1CO,active: 13 µM,
COc1ccc(C2=NN(C(=O)COc3ncnc4ccccc34)C(c3ccco3)C2)cc1 (configuration not stated),"inconclusive: 29.1 µM [activator, single point]",

# A draw from above in order of SMILES length, falling:
SMILES,Potency,re-replication activation
CC[C@H](C)[C@H](NS(=O)(=O)c1ccc(C)cc1)C(=O)N1CCC(C(=O)N[C@H](C(=O)O)C(C)C)CC1,"inconclusive: 5.17 µM [activator, single point]",
COCCN(C(=O)Cn1nnc2ccccc21)C(C(=O)NC1CCCCC1)c1ccc(OC)cc1OC (configuration not stated),"inconclusive: 15.8 µM [activator, partial curve, poor fit]",
CCC(C(=O)NCCC1=CCCCC1)n1nc(C)c2c(C)n(-c3ccccc3)nc2c1=O (configuration not stated),,inactive: 1.19%
COc1ccc(CCN(C)Cc2ccc(OC)c(OCc3ccccc3)c2)cc1OC,"inconclusive: 20.6 µM [activator, single point]",

# Following part:

SMILES,Potency,re-replication activation
CCN(CC(=O)Nc1ccc2c(c1)OCO2)Cc1nc2ccccc2c(=O)[nH]1,"inconclusive: 29.1 µM [activator, single point]",
CCOc1cccc(C(=O)Nc2ccc(N3CCCC3)cc2)c1,"inconclusive: 29.1 µM [activator, single point]",
CC(=O)N1CCc2c(sc(NC(=O)C3CC3)c2-c2nc3ccccc3s2)C1,"inconclusive: 29.1 µM [activator, partial curve, poor fit]",
Cc1ccc(C(=O)Nc2ccc(N3CCN(C)CC3)cc2)cc1C,"inconclusive: 3.66 µM [activator, single point]",
COc1ccc(-c2ccc(SCC(=O)N3c4ccccc4CC3C)nn2)cc1OC (configuration not stated),"inconclusive: 16.4 µM [activator, single point]",
CCCNCc1cc(OC)c(OCC(=O)NCCc2ccccc2)cc1Br,"inconclusive: 18.4 µM [activator, partial curve, poor fit]",
CCc1nc(C)cn1S(=O)(=O)c1ccc([N+](=O)[O-])cc1,,inactive: 2.2%
O=C(Nc1ccncc1)Nc1cc(Cl)ccc1Cl,"inconclusive: 16.4 µM [activator, single point]",
COCC(=O)Nc1nc2n(n1)C(c1ccc(Cl)cc1)CC(c1ccc(OC)cc1)N2 (configuration not stated),,inactive: -1.58%
COc1cc(OC)c(C(=O)NNC(=S)NC2CCCCC2)cc1OC,,inactive: -1.04%
Cc1ccc2nc(-c3ccc(SCC(=O)N4CCc5ccccc54)nc3)[nH]c2c1,"inconclusive: 18.4 µM [activator, partial curve, poor fit]",
Cc1cccc(N(C)C(=O)c2cnn(-c3ccccc3)c2C)c1,"inconclusive: 0.366 µM [activator, full curve, poor fit]",
Cc1cc(NC(=O)C(C)SCC(=O)OCC(=O)N(C)c2ccccc2)no1 (configuration not stated),,inactive: -7.21%
CCCCn1c(N)c(N(CCC(C)C)C(=O)c2cccc(-n3cnnn3)c2)c(=O)[nH]c1=O,"inconclusive: 1.46 µM [activator, partial curve, poor fit]",
CC(=O)N1c2ccc(S(=O)(=O)NCC3CCC(C(=O)NC4CCC(C)CC4)CC3)cc2CC1C (configuration not stated),"inconclusive: 20.6 µM [activator, single point]",
Cn1cccc1/C=N/NC(=O)CNc1cccc2ccccc12,"inconclusive: 0.092 µM [activator, full curve, poor fit]",
CCCCn1c(N)c(N(CCOC)C(=O)C2CCN(S(=O)(=O)c3ccc(C)cc3C)CC2)c(=O)[nH]c1=O,"inconclusive: 16.4 µM [activator, partial curve]",
C#CCSc1nc(N)c2c(n1)OC(N)=C(C#N)C2c1cccnc1 (configuration not stated),"inconclusive: 29.1 µM [activator, single point]",
Cc1ccc(NC(=O)CCCCCCCCCCC2COCCO2)c(C)c1 (configuration not stated),"inconclusive: 29.1 µM [activator, single point]",
Nc1cc(=O)[nH]c(SCc2nc3ccccc3n2Cc2ccccc2)n1,"inconclusive: 32.6 µM [activator, partial curve, poor fit]",
COc1ccc(-c2[nH]ncc2/C=C(/C#N)C(=O)NC2CCCCC2)cc1,"inconclusive: 29.1 µM [activator, single point]",
CCN(CC)CC(=O)Nc1cccc2c1C(=O)c1ccccc1C2=O,,inactive: -10.8%
O=C(NC(=S)Nc1cccc(F)c1)c1cccc([N+](=O)[O-])c1,,inactive: -6.62%

SMILES,Potency,re-replication activation
Cc1c(C)n(CCc2ccccc2)c2ncnc(NCCCN(C)C)c12,"inconclusive: 29.1 µM [activator, single point]",
CCOc1cc(/C=N/NC(=O)C(=O)NC2CC2)cc(Br)c1O,"inconclusive: 3.66 µM [activator, full curve, poor fit]",
Cn1c2ccccc2c(=O)c2cc(C#CC3=CCCCC3)ccc21,"inconclusive: 29.1 µM [activator, single point]",
COc1cccc(/C=N/NC(=O)CNC(=O)c2ccc3c(c2)OCCO3)c1O,"inconclusive: 18.4 µM [activator, single point]",
Cc1ccc(CCC(=O)Nc2ncc(Cc3cccc(Cl)c3Cl)s2)o1,active: 1.16 µM,
COc1ccc(/C(C)=N\NC(=O)C(c2ccncc2)N2CCOCC2)cc1 (configuration not stated),"inconclusive: 5.17 µM [activator, partial curve, poor fit]",
CN(C)CCn1c2c(c(SCC(=O)Nc3cccc4ccccc34)nc1=O)CCC2,,inactive: 8.6%
Cc1onc(-c2ccccc2)c1C(=O)N1CCN(c2ccccn2)CC1,"inconclusive: 29.1 µM [activator, single point]",
COc1cccc(CNc2ncnc3cc(Cl)ccc23)c1,"inconclusive: 0.92 µM [activator, full curve, poor fit]",
CCn1c(O)c(N=NC(=O)C(O)c2ccccc2)c2ccccc21 (configuration not stated),"inconclusive: 2.31 µM [activator, partial curve, poor fit]",
COc1cccc(CCNC(=O)C2CCC(=O)N(C3CC3)C2)c1OC (configuration not stated),"inconclusive: 29.1 µM [activator, partial curve, poor fit]",
Cc1ccc(C(=O)/C=C/c2ccc3ncccc3c2)cc1,"inconclusive: 16.4 µM [activator, single point]",
Cc1ccc(C)c(NC(=O)CN(C)C(=O)c2oc3c(Cl)cccc3c2C)c1,"inconclusive: 3.66 µM [activator, partial curve]",
O=C(/C=C/c1cccs1)N1CCC2(CC1)Oc1ccc(F)cc1C(=O)C21CC(c2ccccc2)=NO1 (configuration not stated),"inconclusive: 1.03 µM [activator, single point]",
NC(=S)NN=C1C2CC3CC(C2)CC1C3,"inconclusive: 29.1 µM [activator, single point]",
CC(O)(C#CCN1CCCCC1)c1ccccc1 (configuration not stated),,inactive: -7.41%
COc1ccc([C@H]2CC(=O)C=C(c3cccc4c3Oc3ccccc3S4)C2)cc1,"inconclusive: 20.6 µM [activator, single point]",
NC(=O)CSc1nc(-c2ccccc2)nc2c1CCCC2,,inactive: -0.113%
Cc1nc2ccccc2n1CC(O)Cn1c2ccccc2c2ccccc21 (configuration not stated),"inconclusive: 16.4 µM [activator, partial curve]",
C=CCNc1nc(Cl)nc(NCc2ccco2)n1,,inactive: -3.84%
CCOCCCNC(=O)/C(C#N)=C/c1cc(C)c(O)c(C)c1,"inconclusive: 29.1 µM [activator, single point]",
